The text below walks through data of the supplement of paper PMC12819154, “High-throughput peptide-centric local stability assay extends protein–ligand identification to membrane proteins, tissues and bacteria” (Nature Structural & Molecular Biology, 2025).

Protein sequences, listed by entry. Tags and fused reporters are not part of them. Lines headed by an entry give the natural chain unless they say otherwise; changes in a name come on top.
UniProt Q06185: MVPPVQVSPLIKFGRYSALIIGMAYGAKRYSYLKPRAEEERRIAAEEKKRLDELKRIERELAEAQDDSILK
UniProt Q3TC72: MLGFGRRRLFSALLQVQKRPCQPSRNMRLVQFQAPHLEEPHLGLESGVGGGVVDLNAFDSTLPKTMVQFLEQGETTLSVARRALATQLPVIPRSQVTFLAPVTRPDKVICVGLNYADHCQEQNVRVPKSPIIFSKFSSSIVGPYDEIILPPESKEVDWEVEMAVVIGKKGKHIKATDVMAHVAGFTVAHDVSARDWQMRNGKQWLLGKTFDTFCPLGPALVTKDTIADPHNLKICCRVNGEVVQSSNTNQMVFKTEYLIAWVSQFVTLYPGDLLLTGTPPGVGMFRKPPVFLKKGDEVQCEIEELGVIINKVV
UniProt Q3TVI8: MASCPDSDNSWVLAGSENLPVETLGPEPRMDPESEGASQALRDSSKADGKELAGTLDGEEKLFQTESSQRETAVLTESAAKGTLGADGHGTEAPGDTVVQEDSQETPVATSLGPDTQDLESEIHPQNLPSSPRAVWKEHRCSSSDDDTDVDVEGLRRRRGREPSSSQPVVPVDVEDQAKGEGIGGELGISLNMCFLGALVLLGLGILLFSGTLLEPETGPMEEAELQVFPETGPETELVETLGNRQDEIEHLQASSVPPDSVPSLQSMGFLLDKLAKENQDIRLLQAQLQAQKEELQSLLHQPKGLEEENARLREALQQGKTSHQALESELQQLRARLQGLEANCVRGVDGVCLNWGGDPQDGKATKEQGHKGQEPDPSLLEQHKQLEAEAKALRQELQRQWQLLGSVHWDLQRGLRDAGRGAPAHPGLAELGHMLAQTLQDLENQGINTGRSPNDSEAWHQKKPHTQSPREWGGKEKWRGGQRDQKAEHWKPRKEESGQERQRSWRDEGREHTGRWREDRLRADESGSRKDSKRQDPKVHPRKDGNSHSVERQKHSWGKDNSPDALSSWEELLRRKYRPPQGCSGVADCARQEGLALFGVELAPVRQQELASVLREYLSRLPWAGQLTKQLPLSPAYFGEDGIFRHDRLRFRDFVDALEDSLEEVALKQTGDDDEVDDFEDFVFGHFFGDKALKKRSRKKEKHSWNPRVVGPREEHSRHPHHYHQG
UniProt Q03734: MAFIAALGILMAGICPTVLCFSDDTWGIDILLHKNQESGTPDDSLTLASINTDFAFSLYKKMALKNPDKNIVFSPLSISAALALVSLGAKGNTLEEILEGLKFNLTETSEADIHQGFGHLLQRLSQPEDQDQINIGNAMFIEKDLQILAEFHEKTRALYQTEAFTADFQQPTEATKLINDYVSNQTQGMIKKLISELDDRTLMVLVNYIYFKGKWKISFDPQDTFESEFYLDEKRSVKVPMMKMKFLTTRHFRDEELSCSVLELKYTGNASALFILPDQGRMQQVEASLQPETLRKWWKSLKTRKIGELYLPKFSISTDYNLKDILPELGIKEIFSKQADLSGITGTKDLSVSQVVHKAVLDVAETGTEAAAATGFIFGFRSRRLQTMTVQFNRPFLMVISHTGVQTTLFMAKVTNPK
UniProt Q3U319, whole entry: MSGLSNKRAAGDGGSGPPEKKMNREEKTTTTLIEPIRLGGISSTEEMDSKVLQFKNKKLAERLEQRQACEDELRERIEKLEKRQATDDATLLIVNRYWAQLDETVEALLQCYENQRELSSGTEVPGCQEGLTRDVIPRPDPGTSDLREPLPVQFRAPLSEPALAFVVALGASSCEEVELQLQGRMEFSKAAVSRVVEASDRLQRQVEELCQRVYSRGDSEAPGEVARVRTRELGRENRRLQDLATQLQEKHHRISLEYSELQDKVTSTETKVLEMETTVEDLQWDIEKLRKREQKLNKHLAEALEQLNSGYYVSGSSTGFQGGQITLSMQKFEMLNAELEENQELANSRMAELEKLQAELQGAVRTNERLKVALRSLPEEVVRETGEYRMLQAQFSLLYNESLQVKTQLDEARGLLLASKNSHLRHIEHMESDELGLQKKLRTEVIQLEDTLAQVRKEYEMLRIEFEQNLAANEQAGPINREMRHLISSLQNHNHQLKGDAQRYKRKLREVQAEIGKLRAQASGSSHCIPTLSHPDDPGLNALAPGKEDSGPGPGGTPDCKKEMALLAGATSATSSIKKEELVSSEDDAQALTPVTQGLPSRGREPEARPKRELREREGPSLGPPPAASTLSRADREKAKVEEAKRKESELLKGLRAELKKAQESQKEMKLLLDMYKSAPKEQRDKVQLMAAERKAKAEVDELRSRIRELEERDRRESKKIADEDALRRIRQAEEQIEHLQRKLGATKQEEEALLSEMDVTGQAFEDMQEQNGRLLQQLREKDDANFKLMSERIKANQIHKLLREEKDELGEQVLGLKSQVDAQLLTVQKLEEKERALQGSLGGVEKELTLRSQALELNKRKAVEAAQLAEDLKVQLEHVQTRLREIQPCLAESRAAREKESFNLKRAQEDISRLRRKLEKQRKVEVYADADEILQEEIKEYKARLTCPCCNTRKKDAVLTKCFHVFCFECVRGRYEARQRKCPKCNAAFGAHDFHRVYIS
UniProt Q3TUF7: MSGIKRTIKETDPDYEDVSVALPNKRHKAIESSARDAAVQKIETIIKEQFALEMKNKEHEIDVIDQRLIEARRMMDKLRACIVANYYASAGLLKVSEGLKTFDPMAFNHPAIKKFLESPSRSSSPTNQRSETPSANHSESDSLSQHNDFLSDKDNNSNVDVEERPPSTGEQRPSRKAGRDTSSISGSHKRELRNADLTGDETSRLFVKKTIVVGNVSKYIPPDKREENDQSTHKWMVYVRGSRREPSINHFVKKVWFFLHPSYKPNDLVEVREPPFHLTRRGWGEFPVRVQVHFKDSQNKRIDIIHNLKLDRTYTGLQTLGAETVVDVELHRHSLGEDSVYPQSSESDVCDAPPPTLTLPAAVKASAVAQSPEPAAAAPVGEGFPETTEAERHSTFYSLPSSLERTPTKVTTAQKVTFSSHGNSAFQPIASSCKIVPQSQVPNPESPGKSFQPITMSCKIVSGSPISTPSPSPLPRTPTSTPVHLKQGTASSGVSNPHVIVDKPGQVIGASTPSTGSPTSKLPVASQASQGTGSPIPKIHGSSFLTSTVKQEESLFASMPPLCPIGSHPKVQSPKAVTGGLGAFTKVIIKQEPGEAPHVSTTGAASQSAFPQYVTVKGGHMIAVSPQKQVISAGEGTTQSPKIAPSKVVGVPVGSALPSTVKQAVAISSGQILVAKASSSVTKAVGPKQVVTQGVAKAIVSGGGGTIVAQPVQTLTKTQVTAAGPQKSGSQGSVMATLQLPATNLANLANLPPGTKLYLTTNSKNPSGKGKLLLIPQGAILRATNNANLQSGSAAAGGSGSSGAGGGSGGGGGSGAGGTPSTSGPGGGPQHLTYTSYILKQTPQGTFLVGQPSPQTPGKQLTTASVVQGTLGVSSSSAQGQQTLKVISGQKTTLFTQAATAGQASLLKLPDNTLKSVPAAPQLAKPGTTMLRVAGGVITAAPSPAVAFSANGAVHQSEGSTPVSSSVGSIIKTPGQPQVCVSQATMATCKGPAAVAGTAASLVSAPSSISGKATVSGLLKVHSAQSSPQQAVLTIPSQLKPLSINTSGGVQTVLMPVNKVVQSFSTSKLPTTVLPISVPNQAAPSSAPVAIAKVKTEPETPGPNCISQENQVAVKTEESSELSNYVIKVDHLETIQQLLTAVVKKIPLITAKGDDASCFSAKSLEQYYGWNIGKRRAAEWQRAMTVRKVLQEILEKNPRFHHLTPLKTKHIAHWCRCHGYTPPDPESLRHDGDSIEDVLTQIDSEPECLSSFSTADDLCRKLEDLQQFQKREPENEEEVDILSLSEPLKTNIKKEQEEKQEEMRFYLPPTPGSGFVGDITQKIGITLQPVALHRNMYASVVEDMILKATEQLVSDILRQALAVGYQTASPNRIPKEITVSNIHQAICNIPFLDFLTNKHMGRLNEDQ
UniProt Q3TDN2: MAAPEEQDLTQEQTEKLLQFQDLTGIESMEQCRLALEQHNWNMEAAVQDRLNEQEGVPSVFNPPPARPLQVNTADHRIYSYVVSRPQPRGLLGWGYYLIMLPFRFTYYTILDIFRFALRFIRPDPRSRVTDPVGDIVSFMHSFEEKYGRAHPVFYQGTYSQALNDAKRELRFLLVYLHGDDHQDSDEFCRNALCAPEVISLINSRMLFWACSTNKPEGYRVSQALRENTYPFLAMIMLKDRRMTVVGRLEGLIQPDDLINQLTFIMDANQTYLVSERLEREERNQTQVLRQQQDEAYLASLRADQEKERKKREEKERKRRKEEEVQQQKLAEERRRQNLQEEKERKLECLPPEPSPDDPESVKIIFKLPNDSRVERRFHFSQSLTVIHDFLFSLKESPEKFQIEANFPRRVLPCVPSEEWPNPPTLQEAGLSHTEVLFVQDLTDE
UniProt Q3U1J1, whole entry: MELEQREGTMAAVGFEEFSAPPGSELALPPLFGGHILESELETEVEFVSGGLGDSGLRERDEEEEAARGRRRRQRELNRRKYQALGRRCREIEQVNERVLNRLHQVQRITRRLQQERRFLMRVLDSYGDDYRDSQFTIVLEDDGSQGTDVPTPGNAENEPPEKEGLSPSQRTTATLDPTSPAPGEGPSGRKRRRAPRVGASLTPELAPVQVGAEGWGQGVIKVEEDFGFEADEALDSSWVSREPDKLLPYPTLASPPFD
UniProt Q3TKT4, whole entry: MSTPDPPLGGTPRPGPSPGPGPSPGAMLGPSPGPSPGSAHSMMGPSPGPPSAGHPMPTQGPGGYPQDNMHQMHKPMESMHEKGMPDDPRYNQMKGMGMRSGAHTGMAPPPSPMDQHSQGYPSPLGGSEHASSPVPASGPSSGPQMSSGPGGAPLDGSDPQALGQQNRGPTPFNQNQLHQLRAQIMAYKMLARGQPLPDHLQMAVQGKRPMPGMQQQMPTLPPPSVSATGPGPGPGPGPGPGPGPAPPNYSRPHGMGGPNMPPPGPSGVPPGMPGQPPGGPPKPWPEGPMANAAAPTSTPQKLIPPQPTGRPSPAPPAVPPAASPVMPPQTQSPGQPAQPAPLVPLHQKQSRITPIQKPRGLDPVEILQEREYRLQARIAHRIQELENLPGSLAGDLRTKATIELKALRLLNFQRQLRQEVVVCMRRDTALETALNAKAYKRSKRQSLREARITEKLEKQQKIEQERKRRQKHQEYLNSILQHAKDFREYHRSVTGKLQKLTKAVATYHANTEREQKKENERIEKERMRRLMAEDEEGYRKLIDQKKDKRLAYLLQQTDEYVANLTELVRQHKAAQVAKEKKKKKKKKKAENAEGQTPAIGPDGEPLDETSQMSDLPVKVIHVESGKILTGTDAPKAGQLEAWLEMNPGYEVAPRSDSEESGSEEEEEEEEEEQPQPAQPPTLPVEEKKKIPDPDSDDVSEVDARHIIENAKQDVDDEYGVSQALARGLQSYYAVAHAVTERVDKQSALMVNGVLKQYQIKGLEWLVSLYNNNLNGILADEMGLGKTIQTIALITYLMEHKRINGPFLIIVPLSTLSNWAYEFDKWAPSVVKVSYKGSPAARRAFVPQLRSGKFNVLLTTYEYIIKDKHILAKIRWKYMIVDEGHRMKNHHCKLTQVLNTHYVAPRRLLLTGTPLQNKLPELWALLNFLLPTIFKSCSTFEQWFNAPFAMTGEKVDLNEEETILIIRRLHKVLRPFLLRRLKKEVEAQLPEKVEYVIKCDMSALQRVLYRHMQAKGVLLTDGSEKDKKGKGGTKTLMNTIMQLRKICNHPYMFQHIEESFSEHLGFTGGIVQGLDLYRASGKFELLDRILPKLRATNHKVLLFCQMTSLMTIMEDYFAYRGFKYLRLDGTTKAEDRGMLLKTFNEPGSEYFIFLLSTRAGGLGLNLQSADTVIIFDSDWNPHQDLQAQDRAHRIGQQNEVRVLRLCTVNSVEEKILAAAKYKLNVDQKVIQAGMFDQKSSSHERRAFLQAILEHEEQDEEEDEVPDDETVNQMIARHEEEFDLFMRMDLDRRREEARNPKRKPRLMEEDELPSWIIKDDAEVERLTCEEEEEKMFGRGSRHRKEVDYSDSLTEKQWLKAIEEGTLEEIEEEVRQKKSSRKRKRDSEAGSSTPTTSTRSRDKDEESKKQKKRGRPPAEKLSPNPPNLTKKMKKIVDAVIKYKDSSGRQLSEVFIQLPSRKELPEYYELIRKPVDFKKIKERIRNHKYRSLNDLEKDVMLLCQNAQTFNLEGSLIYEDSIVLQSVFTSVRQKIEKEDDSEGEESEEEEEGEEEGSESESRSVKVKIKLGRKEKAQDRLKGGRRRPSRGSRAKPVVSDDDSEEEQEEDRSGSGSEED

Some of the results follow. Most entries show no effect beyond the scatter of the controls.

Compound in the assay: CN[C@@H]1C[C@H]2O[C@@](C)([C@@H]1OC)n1c3ccccc3c3c4c(c5c6ccccc6n2c5c31)C(=O)NC4 [staurosporine]
The experiment in a line: log2 fold change of tryptic peptide abundance, ligand vs vehicle (limited proteolysis) (log2 ratio); higher = more trypsin-susceptible (destabilized). The following applies: ligand concentration: 20 uM; sample: mouse liver crude lysate; replicate design: treated separately.
For the target “UniProt Q06185 (peptide sequence: RLDELKR, peptide start residue: 50)”, the log2 fold change is -0.282. As for “UniProt Q3TYQ9 (peptide sequence: EINMYKK, peptide start residue: 950)”, the figure is 0.284; as for “UniProt Q3TC72 (peptide sequence: ALATQLPVIPR, peptide start residue: 83)”, 0.0576.

Take “UniProt Q149F3 (peptide sequence: EKLVPFLKK, peptide start residue: 376)”: the log2 fold change amounted to 0.587. As for “UniProt Q3TVI8 (peptide sequence: AVWKEHR, peptide start residue: 134)”, the figure is -0.0485; as for “UniProt Q03734 (peptide sequence: DLSVSQVVHK, peptide start residue: 349)”, 0.29; as for “UniProt Q3U319 (peptide sequence: CPKCNAAFGAHDFHR, peptide start residue: 983)”, 0.708.

Regarding “UniProt Q3TUF7 (peptide sequence: TQVTAAGPQK, peptide start residue: 718)”, the log2 fold change was -0.421. The value for “UniProt Q04887 (peptide sequence: EAVSQVLK, peptide start residue: 75)” was 0.0845; that for “UniProt Q3TDN2 (peptide sequence: FQIEANFPR, peptide start residue: 401)” was 0.171; that for “UniProt Q3U1J1 (peptide sequence: VLDSYGDDYR, peptide start residue: 123)” was -0.561. The value for “UniProt Q3TKT4 (peptide sequence: LTQVLNTHYVAPR, peptide start residue: 893)” was 0.361.
